The target in this experiment is Transcription factor p65 [NF-κB (p65)] (human (endogenous in HBMEC)), Q04206. The experiment is described as follows: co-IP. Particulars: remark: other sources report otherwise.

Results are given in words; binding and its absence hold for the method and conditions named. Binding seen in cells or lysates may run through a third protein. Some results given as binding are weak or reduced against the parent protein; the word gives no strength.

B1: NF-kappa-B inhibitor alpha [IκBα], P25963 1-317 (protein)
chain: MFQAAERPQEWAMEGPRDGLKKERLLDDRHDSGLDSMKDEEYEQMVKELQEIRLEPQEVPRGSEPWKQQLTEDGDSFLHLAIIHEEKALTMEVIRQVKGDLAFLNFQNNLQQTPLHLAVITNQPEIAEALLGAGCDPELRDFRGNTPLHLACEQGCLASVGVLTQSCTTPHLHSILKATNYNGHTCLHLASIHGYLGIVELLVSLGADVNAQEPCNGRTALHLAVDLQNPDLVSLLLKCGADVNRVTYQGYSPYQLTWGRPSTRIQQQLGQLTLENLQMLPESEDEESYDTESEFTEFTEDELPYDDCVFGGQRLTL
Take B1: the binding result is “binds”.

(Values after paper PMC3334993.)
